In the supplement of paper PMC8728848:
The list shows a part of the results.

Key:
Assay in all cases: glycan array binding signal (z-score within array); higher = stronger binding
Settings in all cases: glycan notation: IUPAC condensed, linker removed
[1] = biological target: Fuc(a1-2)Gal(b1-4)GlcNAc(b1-3)Gal(b1-4)GlcNAc(b1-3)Gal(b1-4)GlcNAc
In short: (§1)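 Arrays were curated from the Consortium for Functional Glycomics database, 3228 in total, and kept only where the protein sequence was available. Binding is expressed as a within-array Z-score. This score was averaged across arrays of the same protein sequence at different concentrations or buffers and across linkers, and negative values can be read as non-binding.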

[2] = biological target: Fuc(a1-2)Gal(b1-4)GlcNAc(b1-3)GalNAc
In short: as §1

[3] = biological target: Fuc(a1-2)Gal(b1-4)GlcNAc(b1-3)[Fuc(a1-2)Gal(b1-4)GlcNAc(b1-6)]GalNAc
In short: as §1

[4] = biological target: Fuc(a1-2)Gal(b1-4)GlcNAc(b1-3)[Fuc(a1-3)[Gal(b1-4)]GlcNAc(b1-6)]Gal(b1-4)Glc
In short: as §1

[5] = biological target: Fuc(a1-2)Gal(b1-4)GlcNAc(b1-6)GalNAc
In short: as §1

[6] = biological target: Fuc(a1-2)Gal(b1-4)GlcNAc6S
In short: as §1

[7] = biological target: Fuc(a1-2)Gal(b1-4)[Fuc(a1-3)]GlcNAc
In short: as §1

[8] = biological target: Fuc(a1-2)Gal(b1-4)[Fuc(a1-3)]GlcNAc(b1-2)Man(a1-3)[Fuc(a1-2)Gal(b1-4)[Fuc(a1-3)]GlcNAc(b1-2)Man(a1-6)]Man(b1-4)GlcNAc(b1-4)[Fuc(a1-6)]GlcNAc
In short: as §1

[9] = biological target: Fuc(a1-2)Gal(b1-4)[Fuc(a1-3)]GlcNAc(b1-2)[Fuc(a1-2)Gal(b1-4)[Fuc(a1-3)]GlcNAc(b1-4)]Man(a1-3)[Fuc(a1-2)Gal(b1-4)[Fuc(a1-3)]GlcNAc(b1-2)Man(a1-6)]Man(b1-4)GlcNAc(b1-4)GlcNAc
In short: as §1

[10] = biological target: Fuc(a1-2)Gal(b1-4)[Fuc(a1-3)]GlcNAc(b1-3)Gal(b1-4)[Fuc(a1-3)]GlcNAc
In short: as §1

[11] = biological target: Fuc(a1-2)Gal(b1-4)[Fuc(a1-3)]GlcNAc(b1-3)Gal(b1-4)[Fuc(a1-3)]GlcNAc(b1-3)Gal(b1-4)[Fuc(a1-3)]GlcNAc
In short: as §1

[12] = biological target: Fuc(a1-2)Gal(b1-4)[Fuc(a1-3)]GlcNAc(b1-3)GalNAc
In short: as §1

[13] = biological target: Fuc(a1-2)Gal(b1-4)[Fuc(a1-3)]GlcNAc(b1-3)[Neu5Ac(a2-6)Gal(b1-4)GlcNAc(b1-6)]Gal(b1-4)Glc
In short: as §1

[14] = biological target: Fuc(a1-2)Gal3S(b1-4)GlcNAc
In short: as §1

[15] = biological target: Fuc(a1-2)Gal6S(b1-3)GlcNAc
In short: as §1

[16] = biological target: Fuc(a1-2)Gal6S(b1-3)GlcNAc6S
In short: as §1

Fuc(a1-2)Gal6S(b1-4)Glc = biological target: Fuc(a1-2)Gal6S(b1-4)Glc
In short: as §1

[17] = biological target: Fuc(a1-2)Gal6S(b1-4)Glc6S
In short: as §1

Fuc(a1-2)[Gal(a1-3)]Gal = biological target: Fuc(a1-2)[Gal(a1-3)]Gal
In short: as §1

[18] = biological target: Fuc(a1-2)[Gal(a1-3)]Gal(b1-3)GalNAc
In short: as §1

[19] = biological target: Fuc(a1-2)[Gal(a1-3)]Gal(b1-3)GalNAc(b1-3)Gal(a1-4)Gal(b1-4)Glc
In short: as §1

[20] = biological target: Fuc(a1-2)[Gal(a1-3)]Gal(b1-3)GlcNAc
In short: as §1

[21] = biological target: Fuc(a1-2)[Gal(a1-3)]Gal(b1-3)GlcNAc(b1-2)Man(a1-3)[Fuc(a1-2)[Gal(a1-3)]Gal(b1-3)GlcNAc(b1-2)Man(a1-6)]Man(b1-4)GlcNAc(b1-4)GlcNAc
In short: as §1

[22] = biological target: Fuc(a1-2)[Gal(a1-3)]Gal(b1-3)GlcNAc(b1-2)Man(a1-3)[Fuc(a1-2)[Gal(a1-3)]Gal(b1-3)GlcNAc(b1-2)Man(a1-6)]Man(b1-4)GlcNAc(b1-4)[Fuc(a1-6)]GlcNAc
In short: as §1

[23] = biological target: Fuc(a1-2)[Gal(a1-3)]Gal(b1-3)GlcNAc(b1-3)GalNAc
In short: as §1

[24] = biological target: Fuc(a1-2)[Gal(a1-3)]Gal(b1-3)GlcNAc(b1-6)GalNAc
In short: as §1

[25] = biological target: Fuc(a1-2)[Gal(a1-3)]Gal(b1-4)Glc
In short: as §1

[26] = biological target: Fuc(a1-2)[Gal(a1-3)]Gal(b1-4)GlcNAc
In short: as §1

[27] = biological target: Fuc(a1-2)[Gal(a1-3)]Gal(b1-4)GlcNAc(b1-2)Man
In short: as §1

[28] = biological target: Fuc(a1-2)[Gal(a1-3)]Gal(b1-4)GlcNAc(b1-2)Man(a1-3)[Fuc(a1-2)[Gal(a1-3)]Gal(b1-4)GlcNAc(b1-2)Man(a1-6)]Man(b1-4)GlcNAc(b1-4)GlcNAc
In short: as §1

[29] = biological target: Fuc(a1-2)[Gal(a1-3)]Gal(b1-4)GlcNAc(b1-2)Man(a1-3)[Fuc(a1-2)[Gal(a1-3)]Gal(b1-4)GlcNAc(b1-2)Man(a1-6)]Man(b1-4)GlcNAc(b1-4)[Fuc(a1-6)]GlcNAc
In short: as §1

[30] = biological target: Fuc(a1-2)[Gal(a1-3)]Gal(b1-4)GlcNAc(b1-3)GalNAc
In short: as §1

[31] = biological target: Fuc(a1-2)[Gal(a1-3)]Gal(b1-4)GlcNAc(b1-3)[Fuc(a1-2)[Gal(a1-3)]Gal(b1-4)GlcNAc(b1-6)]GalNAc
In short: as §1

[32] = biological target: Fuc(a1-2)[Gal(a1-3)]Gal(b1-4)GlcNAc(b1-6)GalNAc
In short: as §1

[33] = biological target: Fuc(a1-2)[Gal(a1-3)]Gal(b1-4)[Fuc(a1-3)]Glc
In short: as §1

[34] = biological target: Fuc(a1-2)[Gal(a1-3)]Gal(b1-4)[Fuc(a1-3)]GlcNAc
In short: as §1

[35] = biological target: Fuc(a1-2)[Gal(a1-3)]Gal(b1-4)[Fuc(a1-3)]GlcNAc(b1-3)GalNAc
In short: as §1

[36] = biological target: Fuc(a1-2)[Gal(a1-4)]Gal(b1-4)GlcNAc
In short: as §1

[37] = biological target: Fuc(a1-2)[GalNAc(a1-3)]Gal
In short: as §1

[38] = biological target: Fuc(a1-2)[GalNAc(a1-3)]Gal(b1-3)GalNAc(a1-3)[Fuc(a1-2)]Gal(b1-4)GlcNAc
In short: as §1

[39] = biological target: Fuc(a1-2)[GalNAc(a1-3)]Gal(b1-3)GalNAc(b1-3)Gal(a1-4)Gal(b1-4)Glc
In short: as §1

[40] = biological target: Fuc(a1-2)[GalNAc(a1-3)]Gal(b1-3)GlcNAc
In short: as §1

[41] = biological target: Fuc(a1-2)[GalNAc(a1-3)]Gal(b1-3)GlcNAc(b1-2)Man(a1-3)[Fuc(a1-2)[GalNAc(a1-3)]Gal(b1-3)GlcNAc(b1-2)Man(a1-6)]Man(b1-4)GlcNAc(b1-4)GlcNAc
In short: as §1

[42] = biological target: Fuc(a1-2)[GalNAc(a1-3)]Gal(b1-3)GlcNAc(b1-2)Man(a1-3)[Fuc(a1-2)[GalNAc(a1-3)]Gal(b1-3)GlcNAc(b1-2)Man(a1-6)]Man(b1-4)GlcNAc(b1-4)[Fuc(a1-6)]GlcNAc
In short: as §1

[43] = biological target: Fuc(a1-2)[GalNAc(a1-3)]Gal(b1-3)GlcNAc(b1-3)GalNAc
In short: as §1

B1: Awp3 (Candida glabrata), B4UN32 (protein)
chain: MISFVTLLAILGLLSISWADQTVRSVAGDQRVTDPVIVGDNSILDYYGGSNYDFSNNFEIGRGTLYIGKESYFSSFQSAPTDVPNSFHLLIKNTNNLQNNGQFIIENIKRHANQCSNSSIQVFPINFQNDGEFEIISGGVEGRCCLPTSVIAPQNFLNNGKFYYKVLTDTGSIYSGSCMQNVDIGASTTTTVNNNLWEFTGSINAQINGAVSGAAQINLDGSNMFVNANTFSGQVVNLINGGSFLQTSDPLSNIVVINGLGTSDTGVTSIAVKGKGKSFTYNPSSGIVKLTTVEGKTYAYQIGCGYNTKKFITNNDSGASYESADNFFVLTYSEPYSPQTCQLENSSIFSSNFISTSTSSSSSSSSASSLPSSMSSSLPSSLSSSLSSSLSSSMSSSMSSLFIIPPPYTTTRSSGSSIIDTEIVSFYSTTDSPGHTITGTTTTTLYGPHTHSSVSTPSSSSESSTTSNSSIESSSLPHTSVSSTPESSITPSSNTISSSPTSDFSSVQSSSIMESSSVVASSSVINSSSIVDSSSSSASSLPSSMSSSLSSSMSSSLPSSMSSSLSSSLSSSLSSSMSSSMSSLFIIPPPYTTTRSSGSSIIDTEIVSFYSTTDSPGHTITGTTTTTLYGPHTHSSVSTPSSSSESSTTSNSSIESSSLPHTSVSSTPESSITPSSNTISSSPTSDFSSVQSSSIMESSSVVASSSVINSSSIVDSSSSSASSLPSSMPSSLPSSMSSSLSSSMSSSLSSSLSSSLSSSMSSSMSSLFIIPPPYTTTRSSGSSIIDTEIVSFYSTTDSPGHTITGTTTTTLYGPHTHSSVSTPSSSSESSTTSNSSIESSSLPHTSVSSTPESSITPSSNTISSSPTSDFSSVQSSSIMESSSVVASSSATQSSSVINSSSIVDSSSSSASSLPSSMPSSLPSSLSSSLSSSLSSSMSSSMSSLFIIPPPYTTTRSSGSSIIDTEIVSFYSTTDSPGHTITGTTTTTLYESSIYSSSSSTIQESELSNTSRTTMTSNSSVSISSTSSRSSFSNTKSSTIVISQSASLPDSKTDIILSTSSNIGYSSRSLLSDLGTSISDSDIHHSVLHSTESYSSNESGTNPFTSIASLSNFIPESSSHTSTALGSENSVISSDILTTMSHPVATNSGDKPTTPKRSEQVSTTMTSSGPTPDTSSFDTDGMSAYSRPEFTTNSLEVNKSSTSQLGNNKQTFSNLQLESTRPHSENEVDNNTRLLQSIQQSSTYGTNNVNPLSPTGSISIPLTEDGQGDNNNWNSPATNDLCTQISFNLTATTITVTDRITITDSIHDISSEVITSYIYQTIVDQKTVTQTVDGKSLANKMSSIPKPSSRSLIQPQPPVAIELQEGAASTSRVSLVSLFISIILVLL
glycan array binding signal (z-score) [1]: -0.441 | glycan array binding signal (z-score) [2]: -0.891 | glycan array binding signal (z-score) [3]: -0.368 | glycan array binding signal (z-score) [4]: -0.125 | glycan array binding signal (z-score) [5]: 0.16 | glycan array binding signal (z-score) [6]: -0.86 | glycan array binding signal (z-score) [7]: 0.092 | glycan array binding signal (z-score) [8]: -0.693 | glycan array binding signal (z-score) [9]: 0.778 | glycan array binding signal (z-score) [10]: 1.7 | glycan array binding signal (z-score) [11]: 1.19 | glycan array binding signal (z-score) [12]: -2.45 | glycan array binding signal (z-score) [13]: -1.1 | glycan array binding signal (z-score) [14]: -0.254 | glycan array binding signal (z-score) [15]: -0.826 | glycan array binding signal (z-score) [16]: -0.102 | glycan array binding signal (z-score) (Fuc(a1-2)Gal6S(b1-4)Glc): 0.511 | glycan array binding signal (z-score) [17]: -1.42 | glycan array binding signal (z-score) (Fuc(a1-2)[Gal(a1-3)]Gal): 1.33 | glycan array binding signal (z-score) [18]: -0.302 | glycan array binding signal (z-score) [19]: 0.889 | glycan array binding signal (z-score) [20]: -0.69 | glycan array binding signal (z-score) [21]: 0.356 | glycan array binding signal (z-score) [22]: 0.41 | glycan array binding signal (z-score) [23]: -0.242 | glycan array binding signal (z-score) [24]: -0.159 | glycan array binding signal (z-score) [25]: 1.5 | glycan array binding signal (z-score) [26]: -0.045 | glycan array binding signal (z-score) [27]: -0.874 | glycan array binding signal (z-score) [28]: 2.45 | glycan array binding signal (z-score) [29]: -0.294 | glycan array binding signal (z-score) [30]: 1.13 | glycan array binding signal (z-score) [31]: 0.811 | glycan array binding signal (z-score) [32]: 0.108 | glycan array binding signal (z-score) [33]: 1.5 | glycan array binding signal (z-score) [34]: 0.126 | glycan array binding signal (z-score) [35]: -1.29 | glycan array binding signal (z-score) [36]: 0.301 | glycan array binding signal (z-score) [37]: -0.528 | glycan array binding signal (z-score) [38]: -0.35 | glycan array binding signal (z-score) [39]: 2.28 | glycan array binding signal (z-score) [40]: -0.308 | glycan array binding signal (z-score) [41]: 0.594 | glycan array binding signal (z-score) [42]: -0.338 | glycan array binding signal (z-score) [43]: -0.128
